Experimental data taken from PubChem BioAssay (EPA / NIEHS).
Values joined by “and” are separate entries in the source; they are usually repeats but may differ in a detail not shown here. Equal entries are not always repeated. The shares of active, inactive and inconclusive entries below differ from those in the screen. A potency beside an inconclusive call is a rough fit, not a confirmed value. Active and inactive are the calls of the source. Rule for the calls: active = hit-call score of the fitted dose curve at least 0.9, where 1 is the maximum; inconclusive = response in the unintended direction; inactive = score below 0.9.

Protein sequences, listed by entry. Tags and fused reporters are not part of them. Lines headed by an entry give the natural chain unless they say otherwise; changes in a name come on top.
UniProt P10276, whole entry, looked up: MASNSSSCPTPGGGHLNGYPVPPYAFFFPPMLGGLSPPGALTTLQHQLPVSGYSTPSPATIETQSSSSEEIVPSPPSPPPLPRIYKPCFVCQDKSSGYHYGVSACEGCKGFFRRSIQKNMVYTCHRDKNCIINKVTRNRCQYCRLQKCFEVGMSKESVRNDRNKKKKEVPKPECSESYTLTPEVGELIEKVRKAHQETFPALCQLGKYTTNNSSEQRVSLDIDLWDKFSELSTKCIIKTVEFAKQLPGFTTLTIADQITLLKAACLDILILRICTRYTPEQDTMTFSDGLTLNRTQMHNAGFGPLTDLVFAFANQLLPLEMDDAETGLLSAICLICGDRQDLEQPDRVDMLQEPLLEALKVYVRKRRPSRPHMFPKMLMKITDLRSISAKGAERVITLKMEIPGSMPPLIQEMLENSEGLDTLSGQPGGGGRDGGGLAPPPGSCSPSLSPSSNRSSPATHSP
UniProt O75469: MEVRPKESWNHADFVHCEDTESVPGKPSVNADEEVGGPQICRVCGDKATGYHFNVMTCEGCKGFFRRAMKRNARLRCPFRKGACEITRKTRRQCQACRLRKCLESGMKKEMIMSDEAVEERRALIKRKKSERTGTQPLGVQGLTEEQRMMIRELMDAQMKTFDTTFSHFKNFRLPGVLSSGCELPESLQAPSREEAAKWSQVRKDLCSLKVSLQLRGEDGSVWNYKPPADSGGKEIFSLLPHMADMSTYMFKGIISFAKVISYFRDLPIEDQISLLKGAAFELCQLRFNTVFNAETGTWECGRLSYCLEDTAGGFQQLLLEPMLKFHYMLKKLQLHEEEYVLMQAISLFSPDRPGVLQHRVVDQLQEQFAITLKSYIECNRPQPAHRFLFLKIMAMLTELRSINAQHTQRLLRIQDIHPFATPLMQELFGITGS
UniProt P37231: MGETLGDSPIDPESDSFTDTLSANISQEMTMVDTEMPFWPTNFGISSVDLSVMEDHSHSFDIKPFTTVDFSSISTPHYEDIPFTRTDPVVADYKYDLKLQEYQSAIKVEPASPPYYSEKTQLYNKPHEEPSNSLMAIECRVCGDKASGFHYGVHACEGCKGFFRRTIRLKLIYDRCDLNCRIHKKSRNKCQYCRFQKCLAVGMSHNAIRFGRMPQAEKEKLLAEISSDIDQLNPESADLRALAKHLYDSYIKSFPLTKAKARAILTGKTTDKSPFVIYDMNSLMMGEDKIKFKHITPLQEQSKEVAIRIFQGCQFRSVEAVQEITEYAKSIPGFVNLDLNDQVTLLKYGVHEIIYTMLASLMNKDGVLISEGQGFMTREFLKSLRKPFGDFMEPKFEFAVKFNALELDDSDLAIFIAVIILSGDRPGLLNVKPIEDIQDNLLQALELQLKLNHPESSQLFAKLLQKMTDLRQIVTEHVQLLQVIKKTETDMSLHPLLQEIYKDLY

Each molecule was assayed against Retinoic acid receptor alpha (Homo sapiens) (UniProt P10276) (assay: NVS_NR_hRARa_Agonist: NovaScreen (NVS) Nuclear Receptor Binding Assay for human Retinoic Acid Alpha Receptor Agonism (RAR) (AID 2283361)).
How it was run: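 Cell-free TR-FRET binding readout with extracted receptor protein, read 2 hours after dosing; gain-of-signal fitted relative to DMSO. Screened in duplicate at 25 uM, actives then run in concentration-response.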

Structure (SMILES) | outcome | AC50
O=[N+]([O-])c1cc(C(F)(F)F)c(Cl)c([N+](=O)[O-])c1Nc1ncc(C(F)(F)F)cc1Cl | inactive | –
Cc1cc(C)nc(Nc2ccccc2)n1 | – | inconclusive: 25 µM
C[C@]12C=CC3=C4CCC(=O)C=C4CC[C@H]3[C@@H]1CC[C@@H]2O | – | active: 19.6 µM [middle of 4 runs]

The molecules below were run against Nuclear receptor subfamily 1 group I member 2 (Homo sapiens) (UniProt O75469) (assay: NVS_NR_hPXR: NovaScreen (NVS) Nuclear Receptor Binding Assay for human Pregnane X Receptor (PXR) (AID 2283365);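 note: a drop in FRET signal versus DMSO baseline means the compound binds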).
How it was run: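 Human PXR binding measured by TR-FRET in a cell-free format, 2 h exposure. Single-concentration duplicates at 25 uM preceded concentration-response retests of actives; endpoint fitted positively relative to DMSO, loss of signal indicating binding.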

Structure (SMILES) | AC50 | outcome
CC(C)(C)C(=O)C(Oc1ccc(Cl)cc1)n1cncn1 (centres undefined) | active: 2.31 µM | –
CCOP(=S)(OCC)SCSP(=S)(OCC)OCC | – | inactive
CC(C)(c1ccc(OCC2CO2)cc1)c1ccc(OCC2CO2)cc1 (centres undefined) | inconclusive: 25 µM | –
CC(C)(O)C(=O)Nc1ccc([N+](=O)[O-])c(C(F)(F)F)c1 | inconclusive: 19.2 µM and inconclusive: 52.2 nM | inactive
Cc1ccc(O)c(C)c1 | inconclusive: 15.3 µM | –
CCC(C)(c1ccc(O)cc1)c1ccc(O)cc1 | active: 16.7 µM and active: 11.4 µM and active: 9.16 µM | –

A section of the results above:
Structure (SMILES) | AC50 | outcome
CC(C)(c1ccc(OCC2CO2)cc1)c1ccc(OCC2CO2)cc1 (centres undefined) | inconclusive: 25 µM | –
CC(C)(O)C(=O)Nc1ccc([N+](=O)[O-])c(C(F)(F)F)c1 | inconclusive: 19.2 µM and inconclusive: 52.2 nM | inactive
Cc1ccc(O)c(C)c1 | inconclusive: 15.3 µM | –

What follows are molecules tested against Peroxisome proliferator-activated receptor gamma (Homo sapiens) (UniProt P37231) (assay: NVS_NR_hPPARg: NovaScreen (NVS) Nuclear Receptor Binding Assay for human Peroxisome Proliferator-activated Receptor gamma (PPARg) (AID 2283370)).
How it was run: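 Fluorescence polarization readout of ligand binding to extracted human PPARg, measured at 2 h. Duplicate single-point screen at 25 uM, then concentration-series retesting; activity defined as signal loss versus DMSO.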

Structure (SMILES) | outcome | AC50
CCCCCCCCCC[N+](C)(C)CCCCCCCCCC | inactive | –
O=[N+]([O-])c1cc(C(F)(F)F)c(Cl)c([N+](=O)[O-])c1Nc1ncc(C(F)(F)F)cc1Cl | – | active: 319 nM
O=C(Nc1ccc2[nH]ccc2c1)c1cc2cc(F)ccc2n1Cc1cccc(F)c1 | – | inconclusive: 4960 nM
CC(C)(C)C(=O)C(Oc1ccc(Cl)cc1)n1cncn1 (centres undefined) | inactive | –
CCOP(=S)(OCC)SCSP(=S)(OCC)OCC | – | inconclusive: 236 nM
CN1CSC(=S)N(C)C1 | – | inconclusive: 528 nM
CNC(=O)Oc1ccccc1OC(C)C | – | inconclusive: 1880 nM
CC#Cc1cc(C)nc(Nc2ccccc2)n1 | – | inconclusive: 593 nM
CCC(C)(c1ccc(O)cc1)c1ccc(O)cc1 | – | active: 5.51 µM and inconclusive: 25 µM and inconclusive: 184 nM
